The values below come from publication PMC6659704.

Protein sequences, listed by entry. Tags and fused reporters are not part of them.
UniProt Q9SGH2: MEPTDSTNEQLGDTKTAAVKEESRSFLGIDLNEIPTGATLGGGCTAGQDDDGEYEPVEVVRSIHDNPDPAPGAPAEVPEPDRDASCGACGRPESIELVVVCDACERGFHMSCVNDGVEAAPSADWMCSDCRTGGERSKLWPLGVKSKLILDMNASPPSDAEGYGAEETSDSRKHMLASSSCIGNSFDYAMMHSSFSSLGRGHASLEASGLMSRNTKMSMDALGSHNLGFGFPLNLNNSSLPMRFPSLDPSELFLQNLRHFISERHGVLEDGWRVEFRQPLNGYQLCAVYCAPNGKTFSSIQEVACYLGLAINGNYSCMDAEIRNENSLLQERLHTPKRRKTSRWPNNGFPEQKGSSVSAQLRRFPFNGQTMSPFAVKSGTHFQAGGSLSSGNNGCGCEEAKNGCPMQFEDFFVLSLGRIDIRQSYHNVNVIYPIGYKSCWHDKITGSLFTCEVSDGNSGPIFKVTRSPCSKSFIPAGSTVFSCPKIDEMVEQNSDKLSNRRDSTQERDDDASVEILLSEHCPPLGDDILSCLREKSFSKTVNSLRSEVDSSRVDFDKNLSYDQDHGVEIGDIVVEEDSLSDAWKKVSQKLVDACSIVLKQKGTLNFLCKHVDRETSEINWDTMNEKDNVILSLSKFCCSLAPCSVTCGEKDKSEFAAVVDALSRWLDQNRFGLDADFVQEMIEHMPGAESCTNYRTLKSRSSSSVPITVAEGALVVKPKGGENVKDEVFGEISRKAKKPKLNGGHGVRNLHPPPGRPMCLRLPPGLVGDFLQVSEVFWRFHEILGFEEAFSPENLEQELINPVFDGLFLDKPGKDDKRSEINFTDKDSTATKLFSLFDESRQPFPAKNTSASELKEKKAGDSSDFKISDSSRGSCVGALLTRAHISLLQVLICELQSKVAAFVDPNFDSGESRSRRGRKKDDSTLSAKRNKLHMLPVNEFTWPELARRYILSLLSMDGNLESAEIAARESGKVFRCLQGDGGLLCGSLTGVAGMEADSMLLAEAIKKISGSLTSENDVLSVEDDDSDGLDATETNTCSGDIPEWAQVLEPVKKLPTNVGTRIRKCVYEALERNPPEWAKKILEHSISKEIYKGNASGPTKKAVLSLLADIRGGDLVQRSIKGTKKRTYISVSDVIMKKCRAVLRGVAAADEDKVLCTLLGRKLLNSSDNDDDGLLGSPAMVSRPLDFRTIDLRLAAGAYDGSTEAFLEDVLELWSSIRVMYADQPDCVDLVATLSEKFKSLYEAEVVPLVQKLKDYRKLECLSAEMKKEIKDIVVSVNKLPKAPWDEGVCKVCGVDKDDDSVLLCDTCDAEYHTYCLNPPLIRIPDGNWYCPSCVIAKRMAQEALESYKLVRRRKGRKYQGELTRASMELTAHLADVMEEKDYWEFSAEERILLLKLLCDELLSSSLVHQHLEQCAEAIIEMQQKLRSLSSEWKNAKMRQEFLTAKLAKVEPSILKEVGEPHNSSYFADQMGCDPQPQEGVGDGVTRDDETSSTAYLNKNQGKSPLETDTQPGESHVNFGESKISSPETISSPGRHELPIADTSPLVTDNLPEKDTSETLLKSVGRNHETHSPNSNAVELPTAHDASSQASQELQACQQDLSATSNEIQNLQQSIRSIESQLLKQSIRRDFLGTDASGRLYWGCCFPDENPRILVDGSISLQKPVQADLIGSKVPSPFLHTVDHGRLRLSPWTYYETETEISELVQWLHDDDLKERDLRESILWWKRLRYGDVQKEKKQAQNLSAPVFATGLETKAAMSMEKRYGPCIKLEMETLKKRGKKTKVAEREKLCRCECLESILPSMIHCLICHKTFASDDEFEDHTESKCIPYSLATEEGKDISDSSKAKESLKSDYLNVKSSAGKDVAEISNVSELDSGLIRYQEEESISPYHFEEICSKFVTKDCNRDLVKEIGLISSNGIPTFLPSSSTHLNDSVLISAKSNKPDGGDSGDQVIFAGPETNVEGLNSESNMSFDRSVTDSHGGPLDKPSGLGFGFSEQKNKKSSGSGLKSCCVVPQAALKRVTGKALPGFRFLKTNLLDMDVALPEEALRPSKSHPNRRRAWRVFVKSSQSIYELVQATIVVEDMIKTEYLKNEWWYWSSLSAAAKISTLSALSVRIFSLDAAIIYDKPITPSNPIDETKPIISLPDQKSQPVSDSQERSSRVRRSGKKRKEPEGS

These are yes or no findings as the source states them, for the method shown. Binding seen in cells or lysates may run through a third protein. Some results given as binding are weak or reduced against the parent protein; the word gives no strength. Where a sequence is shown, tags or fusion partners need not be part of it.

For this experiment, the target named is methyl-CpG-binding domain 9 (MBD9), endogenous (Arabidopsis (endogenous in flowers)) (UniProt Q9SGH2). In words: co-IP; anti-MBD9 polyclonal antibody on magnetic beads in lysate of ~2 g floral tissue; IP buffer (50 mM Tris pH 7.6, 150 mM NaCl, 5 mM MgCl2, 10% glycerol, 0.1% NP-40, 0.5 mM DTT), 2 h at 4 °C; blot with anti-Myc 9E10; empty beads as negative control.

B1: ARP6-9xMYC (protein, UniProt Q8LGE3 1-421)
chain: MSNIVVLDNGGGLIKAGQGGERDPTTVIPNCLYKPLSSKKFIHPSPLTTLSDEIDLTSAAVRRPIDRGYLINSDLQREIWSHLFTSLLHIAPSSSSLLLTEAPLSIPSVQRTTDELVFEDFGFSSLYIAHPQSLVHLYEASRQPDSILSKTQCSLVVDCGFSFTHAVPVLHNFTLNHAIKRIDLGGKAFTNYLKELVSYRSINVMDETFLVDDAKEKLCFVSLDLLRDLRLARNGNTLIKSTYVLPDGVTHTKGYVKDPQAAKRFLSLSEKESVVVMDKVGERKKADMNKNEIDLTNERFLVPETLFQPADLGMNQAGLAECIVRAINSCHSYLQPVLYQSIILTGGSTLFPQLKERLEGELRPLVPDHFDVKITTQEDPILGVWRGGSLLASSPDFESMCVTKAEYEELGSARCRRRFFH
As for B1, the binding result is listed as “binds”.
